Experimental data reported in patent US11099176B2 (Duke University, priority 2015, dated 2021).

B1: tsLacBP4: lactate-binding protein from Thioalkalivibrio sulfidophilus (SEQ ID NO: 4, 18, 118) (protein)
chain: MTARGVRWRMQSAWQPGTIGYRTFETWARSIQELTSGELSIEPFPAGAVAGTFEMADAVRSGVLDGMNWFTVYWPGKMPAGVFMSAYPMALSLPHHWDMMFDSFGGRQIVDELYDRQGLVFLGHVQHDLNLIHSKVPLRSFDDFRGKRIRFPGGIIAETFAKVGVRTTLLPGGDVYPALERGTIDAADFVGPAVNYDLGFHQVADYIIMGPPSTPALHQPVDLMDISVNKRSWSRISEHTQKLMYKFVKAYSAEHFAAIQKANHEAWPKYKEAGVEVIHLSEEDAARFREAAIPLWFEWANKDRDAARLFKVHLEVMQDPSVAVITPDDIKDYKLNF
modifications: tsLacBP4 (with signal peptide replaced with M)
B2: msLacBP6: lactate-binding protein from Marinobacter sp. (SEQ ID NO: 6, 20, 120) (protein)
chain: MTDITCKIETKGSARRRGFLKTLAVSAAISATLLASSVQAATTWKIQSVWDAGTVGYDLFKEWCDGMEEKTGGELKFTCFPAKAVAADNNGLFDAVRNGVLQGMNPFTLYWSGKIPASVFLSSYPAGPDQPHQWDTMFYSLGMLEKTREIYKKFGLFYVGPIQHDANIIHSKQPINSLDDLKGLKMRLPGGMVAEVFAKFGVAAVSLPGSDIFPALEKGTIDAADYVGPAVNWELGFSQVTKYILMGPPGIMSVYQPVDLMDLTVNLRAWNALDPKLQQIVEDEVRIYSQKHYLAIQKRNIEAMKKFEAAGTTVTRLSQEDLQEFRRAAIPIWYSWANKDEDAREIFDMQLEYMMNDTVGYITEDDIKGMN
B3: tsLacBP7: lactate-binding protein from Thermus sp. (SEQ ID NO: 7, 21, 121) (protein)
chain: MQAPRFRWRIQSAWDAGTVGYTLFQRFAERVKELTDGQIEIQTFPAGAVVGTFDMFDAVKTGVLDGMHPFTLYWAGRMPVTAFLSSYPLGLDRPDQWETWYYALGGLDLARRAFEEQGLFYVGPVQHDYNLIHSKKPIKSFEDFKGVKLRVPGGMIADVFSAAGAATVLLPGGEVYPALERGVIDAADFVGPAVNYNLGFHQVTKYIIMGPPETPAIHQPVDLADITLNLSRWRAVPKNLQERFEAAVHEWSWIHYAGIQKANLETWPKYKAAGVQIIRLTTVDVRKFRRVAIPIWFKWAKQDKYAREAFASQLEYMKALGYVTDADVRGLSL
modifications: tsLacBP7 (with signal peptide replaced with M)
B4: adLacBP9: protein from Anaeromyxobacter dehalogenans (SEQ ID NO: 9, 23, 123) (protein)
chain: MKKTTSRSQPDTAPKASRRSFLKKAALGAAGVAAGAAAPTIHVAQAPITLRFQSTWPQKDIFHEFALDYAKKVNEMSGGRLKIEVLAAGSVVKAFDLLDAVSKGTLDGGHGVVAYWYGKNTALALWGSGPAFGMDPNMVLAWHHYGGGRQLLEEIYRSLNLDVVSLMYGPMPTQPLGWFKQKPIAKPDDMKGLKFRTVGLSIDIFNGLGAAVNALPGAEIVPAMDRGLLDAAEFNNASSDRVLGFPDVSKICMLQSFHQCSEQFEILFNGKRFQALPADLKSIISIAAQAASADMSWKAIDRYSSDYFEMRDKQGVKFYSTRPEILKRQLEIWDQVMEKRAAENPTFKKVLESQRRFAQRAARWQNDTNVDFKMAYNHFFGGKKKAT
B5: pgLacBP10: protein from Polymorphum gilvum (SEQ ID NO: 10, 24, 124) (protein)
chain: MTEISRRGLLAGSVFGGVALAAPTVARAQEAVEWRMQALWDAGTTPFEFEKKFVERVGELTEGRFKITLYSAGQIVPANQAFDAVRSGAFEMMKTFDGYEAGKIPAFAFTSTIPFGFPQSDQYEAWFYELGGLDLAREAYAKGGLFYIAPTVYGEEPMHSTVKIESIADMAGKKGRFVGLASAVMADLGVAVSPLATAEVYTALEKGLIDFADRGDLTANYEAGLGEVAKFIILPGVHQPTTATSYVANQAAYQKLPDGFKAALAVAAREISGSLRQHILVQDMEVLTKYKDQGVEVVRLDAADIAAARAKAVESWEKATKGDELATRVLKGQVDFMTSLGLL
B6: psLacBP11: protein from Pseudomonas stuztzeri (SEQ ID NO: 11, 25, 125) (protein)
chain: MKRRHLFGAAALLATLALAGCKDEQSQAPNQQAAGEPAKTYHWKMVTAWPKNYPGLGTSAERLAERVNAMSGGRLTIKVYAAGELVPALEVFDAVSRGTAELGHGASYYWKGKVPTAQFFTSVPFGLSTSEMNAWLSKGGGQAFWDEAYAPFGVKPLVIGNTGMQMGGWYNKEINSLTDLKGLKIRMPGLGGEVLSRLGATTVNLPGGEVFTALQTGAIDATDWVSPYNDLAFGLHKAARYYYYPGWQEPQAVLELLINQKAFDSLPADLQAIVTEASLAASRDMHDDYVYNNALALEQLKQQGTELKRFPDEVLAAMREQSDLILGELAAQSELNGRIWASMKAFQAQVEPMHEISEKELYNWR
B7: rsLacBP12: protein from Rhodobacter sphaeroides (SEQ ID NO: 12, 26, 126) (protein)
chain: MTAFEKKAAYSRRSFLRTGALAGGAAAGSVLAAPAVLAQAPLVMKMQTSWPASDIWMDFAREYVTRVEEMSGGRIKVDLLPAGAVVGAFQVMDAVHDGVIDASHSVSAYWYGKSKAASFFGTGPVFGGSATTMLGWFYQGGGQDLYRELTQDILGMNIVGFYGFPMPAQPFGWFKTEVNGVADIQGFKYRTVGLAADLLQAMGMSVAQLPGGEIVPAMERGVIDAFEFNNPSSDMRFGAQDVAKNYYLSSYHQASESFEYTFNRDFYEDLDPDLQAILKYAVEAASTSNTALALRQYSADLATLAAENGVAVHRTPKDILSGQLEAWDKLIVDLEADEFFKKVLDSQRAWVEQVSYYELMNAADLGLAYEHHFPGKLKL
modifications: Rhodobacter sphaeroides
B8: fsLacBP13: protein from Flexistipes sinusarabici (SEQ ID NO: 13, 27, 127) (protein, listed as Flexistipes sinusarabici)
chain: MGMMKKLLYSLLIILLVASAGFTAEKKIRWKLAMTWGPTLHPLSDTAEHMAEIVKELSDGNFVINIDASNVHKAPFGIFDMVKLGQYEMGHTASYYYKGKNIAFLPLTTMPFGMTAPEQYAWFYYGGGLELMQEAYTKHGMLAFPGGNTGNQMGGWFTKEINSLDDLKGLKMRIPGFAGQIMSKLGVTVTNIPPGELYTALERGTVDAVEWTGPGMDINMGFHKIAKYYYTGWHEPGSEVEFLINEKEYNKLPEKYKKILKIAMKTAAYDMYIQSYEMNAEAWQQMKEKYPDIKVKVFPEEVLKEMKTAYDNLVASYEKESPMFKKIMESKRAYLDKVRDWTHISDYLYLKSTSESNLN
B9: ttLacBP1: lactate-binding protein from Thermus thermophilus, seed sequence (SEQ ID NO: 1, 15, 115) (protein, listed as Thermus thermophilus)
chain: MKRVSRRAFLRRLGVGVAATAAFSPLAVAQARRYRWRIQTAWDAGTVGYSLFQKFTERVKELTDGQLEVQPFPAGAVVGTFDMFDAVKTGVLDGMNPFTLYWAGRMPVTAFLSSYALGLDRPDQWETWFYSLGGLDIARRAFAEQGLFYVGPVQHDLNIIHSKKPIRRFEDFKGVKLRVPGGMIAEVFAAAGASTVLLPGGEVYPALERGVIDAADFVGPAVNYNLGFHQVAKYIIMGPPETPAIHQPVDLMDFTINLNRWRSLPKPLQERFIAAVHEYSWIHYAGIQKANLEAWPKYRQAGVEVIRLSNEDVRKFRRLAIPIWFKWAKMDKYSREAFASQLEYMKGIGYVTDEELKGLSL
B10: tsLacBP2: lactate-binding protein from Thermus scotoductus (SEQ ID NO: 2, 16, 116) (protein)
chain: MFSPLAVAQAPRFRWRIQSAWDAGTVGYSLFQKFAERVKELTDGQIEIQTFPAGAVVGTFDMFDAVKTGVLDGMHPFTLYWAGRMPVTAFLSSYPLGLDRPDQWETWYYGLGGLELARKAYEEQGLFFVGPVQHDYNLIHSKKPIKSFEDFKGVKLRVPGGMIAEIFAAAGAATVLLPGGEVYPALERGVIDAADFVGPAVNYNLGFHQVTKYIIMGPPETPAIHQPVDLADITININRWRALPRNLQERFEAAVHEWSWIHYAGIQKANLETWPKYKAAGVQVIRLSTVDVRKFRRVAIPIWFKWAKQDKYTREAFASQLEYMKALGYVTDADIRGLSL
modifications: tsLacBP2 (with signal peptide replaced with M)

assay: Heterologous soluble protein expression in E. coli, SDS gel of soluble fraction; parameters: key: n, no expression; y, expression; sol, purified protein is soluble; ppt, purified protein precipitates over time; conditions: judged by SDS gel electrophoresis of the soluble fraction of a total lysate; T7 expression system in E. coli

Row | Molecule | Soluble Expression
1 | B1 | n
2 | B2 | y, sol
3 | B3 | y, ppt
4 | B4 | y, ppt
5 | B5 | y, sol
6 | B6 | y, ppt
7 | B7 | y, sol
8 | B8 | y, ppt
9 | B9 | y, ppt
10 | B10 | n
